Test results from article PMC5234816.
No constants are given. Whether binding was seen depends on the method and setting. Binding seen in cells or lysates may run through a third protein. Some binding calls cover weakened binding; strength is not graded here. Tags and fused reporters may be left off the sequences shown.

Tests used:
Assay in all cases: co-IP; HEK-293 cells transfected with SLITRK5 alleles; interaction with purified PTPδ-Fc examined by co-precipitation and immunoblot; only the binder purified
[1] = molecular target: T1, HA-tagged SLITRK5 Q118H (pseudo-matched control mutation from the 1000 Genomes database) (human) (UniProt O94991)
T1 sequence: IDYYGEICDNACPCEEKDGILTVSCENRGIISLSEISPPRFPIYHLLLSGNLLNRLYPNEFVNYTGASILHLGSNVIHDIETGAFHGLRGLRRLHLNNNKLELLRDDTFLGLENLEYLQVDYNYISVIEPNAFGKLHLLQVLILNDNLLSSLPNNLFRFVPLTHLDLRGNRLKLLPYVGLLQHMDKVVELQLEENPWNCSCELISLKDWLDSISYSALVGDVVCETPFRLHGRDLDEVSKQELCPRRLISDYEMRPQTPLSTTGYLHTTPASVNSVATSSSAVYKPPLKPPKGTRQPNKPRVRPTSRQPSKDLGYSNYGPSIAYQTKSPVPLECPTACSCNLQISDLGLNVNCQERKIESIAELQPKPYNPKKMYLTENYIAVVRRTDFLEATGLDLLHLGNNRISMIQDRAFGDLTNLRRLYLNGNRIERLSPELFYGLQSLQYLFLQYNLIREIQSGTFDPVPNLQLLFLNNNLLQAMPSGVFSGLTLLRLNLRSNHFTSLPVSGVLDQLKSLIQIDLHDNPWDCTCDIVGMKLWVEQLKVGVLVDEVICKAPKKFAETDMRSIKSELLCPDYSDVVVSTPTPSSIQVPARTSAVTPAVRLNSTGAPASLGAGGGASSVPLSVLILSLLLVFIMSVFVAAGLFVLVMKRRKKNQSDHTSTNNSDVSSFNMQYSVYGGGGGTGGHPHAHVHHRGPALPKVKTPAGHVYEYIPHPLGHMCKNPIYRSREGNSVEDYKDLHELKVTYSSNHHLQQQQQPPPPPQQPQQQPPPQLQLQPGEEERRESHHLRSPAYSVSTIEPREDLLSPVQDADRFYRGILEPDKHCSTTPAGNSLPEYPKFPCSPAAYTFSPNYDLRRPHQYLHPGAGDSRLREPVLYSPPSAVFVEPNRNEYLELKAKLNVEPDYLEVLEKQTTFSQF

[2] = molecular target: T2, HA-tagged SLITRK5 E600K (rare non-synonymous mutation from an OCD subject) (human) (UniProt O94991)
T2 sequence: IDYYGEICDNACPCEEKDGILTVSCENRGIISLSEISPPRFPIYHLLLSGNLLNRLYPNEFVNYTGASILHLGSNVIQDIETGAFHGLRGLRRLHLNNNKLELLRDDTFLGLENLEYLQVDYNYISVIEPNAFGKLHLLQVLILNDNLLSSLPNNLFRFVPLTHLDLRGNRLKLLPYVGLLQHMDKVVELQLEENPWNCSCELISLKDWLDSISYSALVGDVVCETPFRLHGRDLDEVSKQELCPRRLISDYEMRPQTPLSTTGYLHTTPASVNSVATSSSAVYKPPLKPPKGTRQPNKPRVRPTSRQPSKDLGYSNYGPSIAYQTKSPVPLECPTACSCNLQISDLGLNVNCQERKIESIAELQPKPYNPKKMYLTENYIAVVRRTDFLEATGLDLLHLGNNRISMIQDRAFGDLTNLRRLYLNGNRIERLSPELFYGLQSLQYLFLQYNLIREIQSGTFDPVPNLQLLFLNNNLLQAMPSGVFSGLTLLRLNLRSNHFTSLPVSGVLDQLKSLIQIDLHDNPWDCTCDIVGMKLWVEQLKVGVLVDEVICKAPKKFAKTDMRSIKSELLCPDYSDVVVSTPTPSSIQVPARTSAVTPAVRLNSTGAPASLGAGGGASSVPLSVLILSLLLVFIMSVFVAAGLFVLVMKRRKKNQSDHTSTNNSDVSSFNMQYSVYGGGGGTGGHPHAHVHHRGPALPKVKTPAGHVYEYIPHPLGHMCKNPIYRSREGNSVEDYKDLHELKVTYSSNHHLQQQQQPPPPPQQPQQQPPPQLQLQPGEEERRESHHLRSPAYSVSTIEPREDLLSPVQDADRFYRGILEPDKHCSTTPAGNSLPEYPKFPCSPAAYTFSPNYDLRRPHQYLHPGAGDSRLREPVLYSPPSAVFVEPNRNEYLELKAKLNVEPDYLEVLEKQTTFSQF

[3] = molecular target: T3, HA-tagged SLITRK5 G722Δ (rare amino acid deletion from an OCD subject) (human) (UniProt O94991)
T3 sequence: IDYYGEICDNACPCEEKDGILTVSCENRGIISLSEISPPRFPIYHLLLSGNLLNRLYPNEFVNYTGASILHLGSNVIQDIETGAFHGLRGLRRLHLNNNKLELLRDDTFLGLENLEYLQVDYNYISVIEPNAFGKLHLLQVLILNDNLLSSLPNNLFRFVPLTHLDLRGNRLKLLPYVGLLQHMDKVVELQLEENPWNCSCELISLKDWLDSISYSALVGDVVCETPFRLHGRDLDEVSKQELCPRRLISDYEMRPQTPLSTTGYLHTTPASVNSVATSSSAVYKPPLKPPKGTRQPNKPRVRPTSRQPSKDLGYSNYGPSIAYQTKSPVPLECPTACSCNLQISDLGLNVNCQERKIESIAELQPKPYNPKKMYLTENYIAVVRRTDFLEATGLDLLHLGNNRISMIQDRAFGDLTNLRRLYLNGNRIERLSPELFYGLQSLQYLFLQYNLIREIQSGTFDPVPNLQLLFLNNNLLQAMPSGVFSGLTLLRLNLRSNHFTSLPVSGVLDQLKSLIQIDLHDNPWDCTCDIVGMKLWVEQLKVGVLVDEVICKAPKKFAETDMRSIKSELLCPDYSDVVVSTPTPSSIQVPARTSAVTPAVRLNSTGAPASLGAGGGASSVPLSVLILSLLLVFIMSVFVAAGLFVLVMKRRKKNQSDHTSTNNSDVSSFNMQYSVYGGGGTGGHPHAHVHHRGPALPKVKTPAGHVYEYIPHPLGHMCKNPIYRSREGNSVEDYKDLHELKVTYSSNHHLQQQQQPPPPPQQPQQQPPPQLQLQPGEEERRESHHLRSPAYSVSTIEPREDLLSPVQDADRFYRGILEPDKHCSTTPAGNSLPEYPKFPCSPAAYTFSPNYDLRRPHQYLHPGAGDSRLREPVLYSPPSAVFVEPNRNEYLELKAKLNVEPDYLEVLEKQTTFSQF

- binding [1]: binds
- binding [2]: binds
- binding [3]: binds
B1: soluble PTPδ ectodomain fused to a human immunoglobulin Fc fragment (PTPδ-Fc) (Fc fusion, UniProt P23468 21-1265)
chain: ETPPRFTRTPVDQTGVSGGVASFICQATGDPRPKIVWNKKGKKVSNQRFEVIEFDDGSGSVLRIQPLRTPRDEAIYECVASNNVGEISVSTRLTVLREDQIPRGFPTIDMGPQLKVVERTRTATMLCAASGNPDPEITWFKDFLPVDTSNNNGRIKQLRSESIGGTPIRGALQIEQSEESDQGKYECVATNSAGTRYSAPANLYVRELREVRRVPPRFSIPPTNHEIMPGGSVNITCVAVGSPMPYVKWMLGAEDLTPEDDMPIGRNVLELNDVRQSANYTCVAMSTLGVIEAIAQITVKALPKPPGTPVVTESTATSITLTWDSGNPEPVSYYIIQHKPKNSEELYKEIDGVATTRYSVAGLSPYSDYEFRVVAVNNIGRGPPSEPVLTQTSEQAPSSAPRDVQARMLSSTTILVQWKEPEEPNGQIQGYRVYYTMDPTQHVNNWMKHNVADSQITTIGNLVPQKTYSVKVLAFTSIGDGPLSSDIQVITQTGVPGQPLNFKAEPESETSILLSWTPPRSDTIANYELVYKDGEHGEEQRITIEPGTSYRLQGLKPNSLYYFRLAARSPQGLGASTAEISARTMQSKPSAPPQDISCTSPSSTSILVSWQPPPVEKQNGIITEYSIKYTAVDGEDDKPHEILGIPSDTTKYLLEQLEKWTEYRITVTAHTDVGPGPESLSVLIRTNEDVPSGPPRKVEVEAVNSTSVKVSWRSPVPNKQHGQIRGYQVHYVRMENGEPKGQPMLKDVMLADAQWEFDDTTEHDMIISGLQPETSYSLTVTAYTTKGDGARSKPKLVSTTGAVPGKPRLVINHTQMNTALIQWHPPVDTFGPLQGYRLKFGRKDMEPLTTLEFSEKEDHFTATDIHKGASYVFRLSARNKVGFGEEMVKEISIPEEVPTGFPQNLHSEGTTSTSVQLSWQPPVLAERNGIITKYTLLYRDINIPLLPMEQLIVPADTTMTLTGLKPDTTYDVKVRAHTSKGPGPYSPSVQFRTLPVDQVFAKNFHVKAVMKTSVLLSWEIPENYNSAMPFKILYDDGKMVEEVDGRATQKLIVNLKPEKSYSFVLTNRGNSAGGLQHRVTAKTAPDVLRTKPAFIGKTNLDGMITVQLPEVPANENIKGYYIIIVPLKKSRGKFIKPWESPDEMELDELLKEISRKRRSIRYGREVELKPYIAAHFDVLPTEFTLGDDKHYGGFTNKQLQSGQEYVFFVLAVMEHAESKMYATSPYSDPVVSMDLDPQPITDEEE
